{"source": "patent US20210275447A1", "about": "“SUSTAINED-RELEASE OPHTHALMIC PHARMACEUTICAL COMPOSITIONS AND USES THEREOF” (TAIWAN LIPOSOME CO., LTD., priority 2018, published 2021)", "assay": "Drug loading of liposomes by remote loading: drug to lipid molar ratio and encapsulation efficiency", "format": "physicochemical", "details": "300 mM AS, 2 mg/mL drug", "key": {"[1]": {"details": "liposomes DOPC/cholesterol (66.7/33.3)"}, "[2]": {"details": "liposomes POPC/cholesterol (66.7/33.3)"}}, "note": "At least one structure is not confirmed: it was looked up by name or label, or the drawing left a doubt.", "data": [{"smiles": "CNC(=O)c1ccccc1Sc1ccc2c(/C=C/c3ccccn3)n[nH]c2c1", "note": "[Axitinib, axitinib]", "values": [{"measurement": "EE (%), encapsulation efficiency", "setting": "[1]", "value": 78.5, "unit": "%"}, {"measurement": "Purified D/PL (mole/mole)", "setting": "[1]", "value": 0.81, "unit": "mole/mole"}, {"measurement": "EE (%), encapsulation efficiency", "setting": "[2]", "value": 71.0, "unit": "%"}, {"measurement": "Purified D/PL (mole/mole)", "setting": "[2]", "value": 0.37, "unit": "mole/mole"}]}]}
